According to US7622552 (dated 2009):

Test: peptide synthesis
Settings: whole synthesis, RPHPLC

## GEQKLISEEDL-NH2
  final HPLC purity: >95%
